Literature values, collected in patent US20240335397A1, “USE OF POLYAMINES IN THE TREATMENT OF BRAIN TUMOURS” (priority 2021, published 2024).
Read-outs that look alike come from different tables or passages of the source. At least one structure is not confirmed: it was looked up by name or label, or the drawing left a doubt.

Test system: GBM
Conditions: cited from earlier work

In the case of `Cn1nnc2c(C(N)=O)ncn2c1=O` [temozolomide], the Progression-free survival (temozolomide alone) is listed as 16.6 months and the Progression-free survival (temozolomide with Optune, interim Phase III results) is listed as 19.6 months.
